Experimental data reported in publication PMC9982576, “Nuclear Fructose‐1,6‐Bisphosphate Inhibits Tumor Growth and Sensitizes Chemotherapy by Targeting HMGB1” (Advanced Science, 2023).
Results are given in words; binding and its absence hold for the method and conditions named. A result given as binding can be weak or reduced; the word gives no strength.

The chains behind the UniProt entries cited, without tags or fusion partners. Where a name states a change or a piece, a line headed by the entry shows the natural chain unless it says otherwise.
UniProt P09429: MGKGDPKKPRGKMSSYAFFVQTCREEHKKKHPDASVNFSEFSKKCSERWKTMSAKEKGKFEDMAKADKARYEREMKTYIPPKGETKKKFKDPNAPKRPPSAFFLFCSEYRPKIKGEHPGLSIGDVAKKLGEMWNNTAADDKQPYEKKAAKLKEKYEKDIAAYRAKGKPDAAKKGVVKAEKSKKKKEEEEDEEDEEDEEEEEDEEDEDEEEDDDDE

Columns and labels:
[1] = target: HMGB1 A-box with K8 mutated to alanine, purified (UniProt P09429); assay: ITC; purified HMGB1 A-box in the cell titrated with free C-tail (15) peptide; 100 mM Hepes, 50 mM NaCl; with or without 0.2 mM F1,6P; single site binding model; both purified
[2] = target: HMGB1 A-box with R10 mutated to alanine, purified (UniProt P09429); assay: as above

binding [1]: binds | binding [2]: binds
B1: C15 peptide (HMGB1 aa200–214) (peptide, UniProt P09429 200-214, looked up)
peptide: EEDEEDEDEEEDDDD
notes: HMGB1 acidic C-tail, aa200-214; also called C-tail (15) peptide; C-tail (15); source: synthetic peptide
